Test results taken from PMC10656229.
These are yes or no findings as the source states them, for the method shown. In cells and extracts the contact can be indirect. Some entries that bind do so weakly or less than the wild type. Sequences can lack the tags named with a protein.

Amino acid sequences for entries named in this document (tags omitted).
UniProt Q6SEG5: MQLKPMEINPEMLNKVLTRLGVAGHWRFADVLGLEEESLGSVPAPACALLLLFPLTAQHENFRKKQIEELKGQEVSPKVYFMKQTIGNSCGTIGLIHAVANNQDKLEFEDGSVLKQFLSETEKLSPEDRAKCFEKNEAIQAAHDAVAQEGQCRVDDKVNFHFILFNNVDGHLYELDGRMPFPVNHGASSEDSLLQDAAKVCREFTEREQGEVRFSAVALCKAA

T1: voltage-dependent anion channel 2 (VDAC2) (pig (endogenous in porcine granulosa cells)) (UniProt Q9MZ15)
T1 sequence: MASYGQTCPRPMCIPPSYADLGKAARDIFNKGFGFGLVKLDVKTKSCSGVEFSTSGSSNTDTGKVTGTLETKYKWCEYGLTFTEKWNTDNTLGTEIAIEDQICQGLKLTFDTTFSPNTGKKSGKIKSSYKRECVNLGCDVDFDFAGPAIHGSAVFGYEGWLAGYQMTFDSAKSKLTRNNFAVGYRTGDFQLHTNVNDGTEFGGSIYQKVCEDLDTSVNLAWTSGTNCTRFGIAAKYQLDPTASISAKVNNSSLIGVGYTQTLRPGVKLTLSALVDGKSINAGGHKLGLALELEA


What was measured:
[1] = molecular target: T1, voltage-dependent anion channel 2 (VDAC2) (pig (endogenous in porcine granulosa cells)); test: co-IP; lysate of porcine granulosa cells; endogenous proteins precipitated with anti-UCHL1 or anti-VDAC2 antibody and magnetic beads, IgG as negative control; Western blot with UCHL1 and VDAC2 antibodies
[2] = molecular target: ubiquitin C-terminal hydrolase 1 (UCHL1) (pig (endogenous in porcine granulosa cells)) (UniProt Q6SEG5); test: as above

binding [1] | binding [2] | Molecule
binds | – | ubiquitin C-terminal hydrolase 1 (UCHL1) (from UniProt Q6SEG5 1-223) (enzyme)
– | binds | voltage-dependent anion channel 2 (VDAC2) (protein, UniProt Q9MZ15 1-294) MASYGQTCPRPMCIPPSYADLGKAARDIFNKGFGFGLVKLDVKTKSCSGVEFSTSGSSNTDTGKVTGTLETKYKWCEYGLTFTEKWNTDNTLGTEIAIEDQICQGLKLTFDTTFSPNTGKKSGKIKSSYKRECVNLGCDVDFDFAGPAIHGSAVFGYEGWLAGYQMTFDSAKSKLTRNNFAVGYRTGDFQLHTNVNDGTEFGGSIYQKVCEDLDTSVNLAWTSGTNCTRFGIAAKYQLDPTASISAKVNNSSLIGVGYTQTLRPGVKLTLSALVDGKSINAGGHKLGLALELEA
